# According to the supplement of paper PMC12819154, “High-throughput peptide-centric local stability assay extends protein–ligand identification to membrane proteins, tissues and bacteria” (Nature Structural & Molecular Biology, 2025):
# Amino acid sequences for entries named in this document (tags omitted). A change or cut given only in a name is not applied to a line headed by its entry.
# UniProt Q9CSU0: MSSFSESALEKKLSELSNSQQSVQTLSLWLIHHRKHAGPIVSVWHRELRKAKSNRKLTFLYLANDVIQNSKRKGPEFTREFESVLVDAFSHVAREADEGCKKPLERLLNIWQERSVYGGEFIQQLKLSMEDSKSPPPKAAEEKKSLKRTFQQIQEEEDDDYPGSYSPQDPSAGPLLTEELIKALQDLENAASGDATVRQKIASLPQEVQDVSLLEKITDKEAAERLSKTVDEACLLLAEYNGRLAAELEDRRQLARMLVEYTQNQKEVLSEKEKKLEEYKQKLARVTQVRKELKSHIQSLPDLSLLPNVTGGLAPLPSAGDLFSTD
# UniProt Q9CWR1: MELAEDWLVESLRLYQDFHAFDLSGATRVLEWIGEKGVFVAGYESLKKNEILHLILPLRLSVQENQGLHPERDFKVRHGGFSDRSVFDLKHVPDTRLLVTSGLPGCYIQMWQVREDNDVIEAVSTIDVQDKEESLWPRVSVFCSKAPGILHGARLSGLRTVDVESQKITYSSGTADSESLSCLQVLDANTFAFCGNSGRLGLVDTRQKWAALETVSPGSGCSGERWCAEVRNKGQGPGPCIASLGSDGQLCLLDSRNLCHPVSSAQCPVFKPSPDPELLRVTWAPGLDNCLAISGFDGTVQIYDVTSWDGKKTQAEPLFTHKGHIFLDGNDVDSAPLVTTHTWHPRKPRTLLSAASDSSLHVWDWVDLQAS
# UniProt Q9CZL2: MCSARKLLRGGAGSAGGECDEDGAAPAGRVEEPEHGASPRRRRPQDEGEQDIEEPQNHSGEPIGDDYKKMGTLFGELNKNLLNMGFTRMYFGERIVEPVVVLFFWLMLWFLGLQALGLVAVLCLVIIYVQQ
# UniProt Q9D023: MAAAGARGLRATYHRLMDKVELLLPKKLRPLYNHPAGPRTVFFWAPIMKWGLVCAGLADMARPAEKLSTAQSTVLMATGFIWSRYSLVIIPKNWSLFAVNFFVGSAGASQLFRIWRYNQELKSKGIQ
# UniProt Q9CZP0: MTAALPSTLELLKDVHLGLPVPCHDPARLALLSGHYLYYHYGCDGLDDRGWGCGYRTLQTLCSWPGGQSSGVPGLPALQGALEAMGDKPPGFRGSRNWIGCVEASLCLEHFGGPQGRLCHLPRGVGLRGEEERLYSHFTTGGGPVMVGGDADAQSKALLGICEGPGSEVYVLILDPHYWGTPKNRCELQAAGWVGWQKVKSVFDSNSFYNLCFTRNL
# UniProt Q9D0B5: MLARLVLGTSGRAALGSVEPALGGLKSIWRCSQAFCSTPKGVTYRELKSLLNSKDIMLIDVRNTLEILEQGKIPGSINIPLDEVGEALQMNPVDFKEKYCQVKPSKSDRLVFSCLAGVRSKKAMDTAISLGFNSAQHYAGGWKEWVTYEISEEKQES
# UniProt Q9CSP9: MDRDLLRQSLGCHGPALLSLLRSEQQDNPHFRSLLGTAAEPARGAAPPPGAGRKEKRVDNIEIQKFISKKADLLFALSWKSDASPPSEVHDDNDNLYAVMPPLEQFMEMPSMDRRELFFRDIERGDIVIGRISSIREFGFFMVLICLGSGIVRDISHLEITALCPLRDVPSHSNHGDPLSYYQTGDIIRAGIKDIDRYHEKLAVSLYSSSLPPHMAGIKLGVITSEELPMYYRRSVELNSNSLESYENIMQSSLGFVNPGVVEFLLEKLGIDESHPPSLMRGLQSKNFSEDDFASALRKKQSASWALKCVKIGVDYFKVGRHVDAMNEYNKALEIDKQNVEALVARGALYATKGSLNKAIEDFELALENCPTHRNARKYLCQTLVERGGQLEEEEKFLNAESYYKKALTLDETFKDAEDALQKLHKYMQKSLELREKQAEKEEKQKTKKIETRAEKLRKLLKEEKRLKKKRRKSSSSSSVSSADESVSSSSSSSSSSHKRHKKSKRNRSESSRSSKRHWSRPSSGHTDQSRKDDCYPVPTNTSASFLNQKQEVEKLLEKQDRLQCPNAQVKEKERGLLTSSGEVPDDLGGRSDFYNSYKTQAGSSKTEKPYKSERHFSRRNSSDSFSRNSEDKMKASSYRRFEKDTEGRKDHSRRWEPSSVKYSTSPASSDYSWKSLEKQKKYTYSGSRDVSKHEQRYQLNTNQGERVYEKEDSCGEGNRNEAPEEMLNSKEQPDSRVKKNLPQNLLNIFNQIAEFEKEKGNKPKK
# UniProt Q9CWW6, whole entry: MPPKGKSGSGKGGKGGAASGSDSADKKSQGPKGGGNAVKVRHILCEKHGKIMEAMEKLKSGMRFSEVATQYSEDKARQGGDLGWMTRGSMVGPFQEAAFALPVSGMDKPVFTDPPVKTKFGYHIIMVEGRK
# UniProt Q9CZ09: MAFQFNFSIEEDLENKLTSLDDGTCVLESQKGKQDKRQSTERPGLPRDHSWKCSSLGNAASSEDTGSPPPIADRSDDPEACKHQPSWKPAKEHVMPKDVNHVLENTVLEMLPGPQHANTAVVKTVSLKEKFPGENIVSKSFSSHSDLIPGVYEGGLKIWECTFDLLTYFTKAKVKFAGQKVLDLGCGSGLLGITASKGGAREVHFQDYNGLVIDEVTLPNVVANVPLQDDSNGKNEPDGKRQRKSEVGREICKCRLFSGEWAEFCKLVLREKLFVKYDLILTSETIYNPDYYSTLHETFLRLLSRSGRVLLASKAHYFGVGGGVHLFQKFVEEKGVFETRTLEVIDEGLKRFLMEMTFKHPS
# UniProt Q9D110: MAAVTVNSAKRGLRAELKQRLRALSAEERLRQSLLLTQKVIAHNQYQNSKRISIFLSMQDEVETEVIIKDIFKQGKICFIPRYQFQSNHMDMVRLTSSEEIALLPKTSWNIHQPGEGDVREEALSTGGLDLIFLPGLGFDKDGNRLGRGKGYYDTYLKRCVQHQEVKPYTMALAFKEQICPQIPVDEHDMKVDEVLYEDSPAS
# UniProt Q9CRB9: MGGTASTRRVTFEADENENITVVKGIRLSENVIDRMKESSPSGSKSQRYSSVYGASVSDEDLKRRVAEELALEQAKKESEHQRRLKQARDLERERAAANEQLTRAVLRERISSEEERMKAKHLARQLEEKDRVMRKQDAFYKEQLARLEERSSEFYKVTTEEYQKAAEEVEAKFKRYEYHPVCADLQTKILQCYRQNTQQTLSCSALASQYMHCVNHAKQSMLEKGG
# The other results are listed elsewhere or left out. Most entries show no effect beyond the scatter of the controls.
# Compound: CN[C@@H]1C[C@H]2O[C@@](C)([C@@H]1OC)n1c3ccccc3c3c4c(c5c6ccccc6n2c5c31)C(=O)NC4 [staurosporine]
# Assay: log2 fold change of tryptic peptide abundance, ligand vs vehicle (limited proteolysis) (log2 ratio); higher = more trypsin-susceptible (destabilized)
# Conditions: ligand concentration: 20 uM; sample: mouse liver crude lysate; replicate design: treated separately
target,measurement,value
"UniProt Q9CSU0 (peptide sequence: ITDKEAAER, peptide start residue: 217)",log2 fold change,-0.104
"UniProt Q9CWR1 (peptide sequence: KNEILHLILPLR, peptide start residue: 48)",log2 fold change,-0.0746
"UniProt Q9CZL2 (peptide sequence: VEEPEHGASPR, peptide start residue: 30)",log2 fold change,0.173
"UniProt Q9D023 (peptide sequence: KLRPLYNHPAGPR, peptide start residue: 27)",log2 fold change,-0.152
"UniProt Q9CY73 (peptide sequence: RPWDYSKPK, peptide start residue: 312)",log2 fold change,0.864
"UniProt Q9CZP0 (peptide sequence: DVHLGLPVPCHDPAR, peptide start residue: 14)",log2 fold change,0.107
"UniProt Q9D0B5 (peptide sequence: YCQVKPSK, peptide start residue: 99)",log2 fold change,0.327
"UniProt Q9CSP9 (peptide sequence: HVDAMNEYNK, peptide start residue: 322)",log2 fold change,0.531
"UniProt Q9CWW6 (peptide sequence: GGAASGSDSADKK, peptide start residue: 15)",log2 fold change,-0.143
"UniProt Q9CZ09 (peptide sequence: TLEVIDEGLKR, peptide start residue: 341)",log2 fold change,0.318
"UniProt Q9D110 (peptide sequence: VIAHNQYQNSK, peptide start residue: 40)",log2 fold change,-0.112
"UniProt Q9CRB9 (peptide sequence: KQDAFYK, peptide start residue: 136)",log2 fold change,-0.195

# Given with tabs: entries from further up.
target	measurement	value
UniProt Q9D0B5 (peptide sequence: YCQVKPSK, peptide start residue: 99)	log2 fold change	0.327
UniProt Q9D110 (peptide sequence: VIAHNQYQNSK, peptide start residue: 40)	log2 fold change	-0.112
